From patent US5997843A, “Radiometal complexes that localise in hypoxic tissue” (priority 1993, dated 1999)

Test: Zinc in ammonium chloride solution reduction test
Conditions: change of HPLC profile of the ^99m Tc complex after 15 minutes

Structure (SMILES)	Zinc/ammonium chloride reduction test result
CC(=NO)C(C)(C)NCCCCNC(C)(C)C(C)=NO [Compound I, 4,9-diaza-3,3,10,10-tetramethyldodecan-2,11',-dione dioxime]	positive
CC(=NO)C(C)(C)NCCCCCNC(C)(C)C(C)=NO [Compound III, 4,10-diaza-3,3,11,11-tetramethyltridecan-2,12-dione dioxime]	negative
CC(=NO)C(C)(C)NCCCCNC(C)(C)C(Cn1ccnc1[N+](=O)[O-])=NO [Compound II]	positive
CC(=NO)C(C)(C)NCCCCCNC(C)(C)C(Cn1ccnc1[N+](=O)[O-])=NO [Compound IV, 3,3,11,11-tetramethyl-1-(2-nitro-1H-imidazo-1-yl)-4,10-diazatridecan-2,12-dione dioxime]	appears inert to Zn/NH3
